{
  "source": "patent US20080233206A1",
  "about": "“COMPOSITIONS AND METHODS FOR ANTI-INFLAMMATORY TREATMENTS” (Molecular Research Center, Inc., priority 2007, published 2008)",
  "origin": "cited, not measured here",
  "tested_on": "bacteria strains",
  "conditions": "in man (Agwuch, 2006); cited from earlier work",
  "note": "At least one compound was matched to its structure with a doubt left.",
  "data": [
    {"smiles": "C[C@H]1c2cccc(O)c2C(=O)C2=C(O)[C@]3(O)C(=O)C(C(N)=O)=C(O)[C@@H](N(C)C)[C@@H]3[C@@H](O)[C@@H]21", "note": "[doxycycline]", "values": [
      {"measurement": "antibiotic MIC50", "result": "0.1 to 25", "unit": "µg/mL"}
    ]}
  ]
}
